According to PubChem BioAssay AID1508600 (Functional Genomics Laboratory (NCATS/FGL), 2020):
The whole screen tested about 53,000 sequences, of which about 3,700 (7%) were called active.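 How the source made its calls: active means gene knockdowns whose robust z-score for IL-1 alpha signal is at least 2 or at most -2, so actives lie on both sides; inactive means the rest.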 The list shows a part of the results.

assay: Components of the Cytosolic LPS Sensing Pathway: Gene Identification via Genome-wide siRNA Screen; conditions: RAW264.7 macrophages, IL-1a HTRF, actives lie on both sides, screened at 100 nM (by protocol), cells primed 5 h with Pam3CSK4 first;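 further: robust z of the log signal after scaling to non-targeting control siRNA wells of the plate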
Procedure, shortened: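 Three distinct siRNAs per gene were tested singly at 100 nM in RAW264.7 macrophages. Following Pam3CSK4 priming and 24 hour LipidA transfection, IL-1a secretion was read by HTRF.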

z-score, active:
CUCUAGUGUUACACUUAUUTT against Tefm 2.83
GCCAUCUUCGGUCAACUCUTT against Olfr969 -2.87
GGUGUUUGAGUCAACAGACTT against Oard1 -2.1
GGUCGACAUUUUGAAGGAGTT against Fthl17e -2.63
GGUGGUAUCACCUCUAUCATT against Cfap52 -2.49
GGAACCAGUGCUGCAUUUATT against Defb41 -2.05
GGUAAUUUAAUGACACAUGTT against A130079P16Rik 2.35
GGACCAAGCCACCAAAACUTT against Vmn1r78 -2.28
GGACAACUUUGAGGAGAUGTT against Tubg2 3.23
GGCUCCUCUCCAAGAAUAUTT against Prr14l 2.03

At a glance, some entries already given.
z-score, active:
GCCAUCUUCGGUCAACUCUTT against Olfr969 -2.87
GGUGUUUGAGUCAACAGACTT against Oard1 -2.1

Following part.

z-score, inactive:
CGUAUGAGUGCAAUACUAATT against Pcmtd1 1.32
GGCAAGUGCCCAAGUUUGUTT against Ifi35 1.08
GGCAAAUUCUACUACAAGATT against Pms2 0.117
GGAAGAUCAUAGCAAAAGGTT against Casp3 -1.01
GGAGUUGGCCAUGUGGAAATT against Wdr45b 0.945
GGAGAAGAGCAUAAAUACATT against 2410137M14Rik 1.16
CCUAAUCUGGUAUACCAGATT against Slc7a1 0.593
GGGCAUAUGACUGAAACACTT against Vmn1r45 -0.686
GGUUCAACAAAACAAAGAGTT against Steap1 -0.209
GGCGAGAAACCAUACCUGUTT against Glis1 0.24
GGAUGUCAAUGAGUUUGCATT against Clstn2 -0.16
GGUGUGACCAUCAAGCAUGTT against Nek8 -0.386
GGACAAGAAAAAGGAUUAGTT against Clptm1 -0.414
GGAAUAGAAGCUUUCACUGTT against A630023P12Rik 0.895
GGCACAAGAACCAUUUCUGTT against Nfe2l3 -1.84
CGAUGGAAGCACUUAUUUATT against Lep 0.984
CCACUUACGAGGGCAUUUUTT against Atxn2l -0.596
CCGACAAAUAAAGGCUUUATT against Ddx52 0.486
GGAAGCAUCUGAUGUCAUUTT against Erp44 0.711
GGUUCAUUCGAUCUCAGACTT against Opalin -0.505
GCAUGUCAGACAAUAAAGUTT against Mpped1 0.412
CCUUAUUGGGUCAUAAGCATT against Rasl10a -0.825
GGAGUGUGCCCUGAAAGAUTT against Psrc1 -0.215
GCCGAUAGCGGGAUUUAUUTT against Itsn1 0.681
GGUAACAUGGCAGAUUUUATT against Aif1l 0.618
GGUGGUCCACGAAUUCAUUTT against Fermt2 -1.41
GGUCAGGUUGAGGACAUAATT against Vwa1 1.28
CCUUUUUUCAUGUUAAUGGTT against Lmod1 1.3
GGUCAUCUCCAGAUACCCATT against Arhgap45 -0.604
GCCACCGUAUAUUUUUAAUTT against Castor2 -0.466
GAGUGGGAUUAUGUUCAAUTT against Krtap19-3 0.664
GCCAUUGACUGUACAGGUUTT against Taar4 0.74
GGACUGAACCGUUUUAAAGTT against Fmo3 -0.317
GAAGUCAUGGUUCCUACCATT against Clcn1 0.577
GGCAAGGUAUCCUCACUUGTT against Arpp19 -0.0817
CCGAAAAAUGUCCAAAUCGTT against Vsx2 1.63
GGAAGCUGAUGAAUAUGUUTT against Acly 0.719
GCUUAACGGGAGUUAUGAGTT against Capn9 -0.478
CCGGGUGCUGUUCUAUAAGTT against Pecam1 -0.827
GGAGAUGAUACAUAAUCUATT against Psmd12 -0.0292
GGAUAUACCAUCAAUGUACTT against Hdac6 0.239
CCUUAGUUAGAAAUGUUGATT against Xk -0.33
CCUACUUCCGAGGUUUCUUTT against Ifnz -0.493
GCCUGCUAGAGGAUUUCAATT against Cep128 0.404
CCUGUACAAUUGACCUACATT against Serpinb1c 0.0846
CGACAAAAUUACCAGGUCATT against Hmx3 -0.667
GGGCUAUGAGGUAACCACUTT against Ahcy 1.87
CGUGACUGCACUUUAAGUATT against Pirb 0.373
GCUGGUUGUAGUAAAACAGTT against Resf1 -1.29
GCGGGAGCUACACACGAUUTT against Dolpp1 0.386
GGACUUCACCUACAGCAAGTT against Nr1h2 0.168
GGACCAGAGGUUAAUUUAUTT against Herpud1 -0.926
GGCUGUAAAACCCAAUCUATT against Top3a 0.509
GCUGGUGAAGAGCAUAUUCTT against Tfcp2 -0.0229
GGUGGAGGAACGAAAGUUUTT against Ribc1 0.625
GGCUUCAAGGACUUUACAATT against Mefv 1.62
GGCCCAGUCUUCUCAAAAATT against Cers2 0.249
CCGGUUGCUAGGCUAAACATT against Dcaf7 0.33
GGAAAGAACAACAAAGGAGTT against Snx9 0.84
GGAUUUCUGACCAUUGAGCTT against Mrgprf -1.2
GGUGAGGAACUUCUGGAAUTT against Klra5 0.32
GGACAUCAUUCAUGACCCUTT against Rpl8 -0.0737
GGAGUUGGUACCUUUCCGATT against Thap4 -0.975
GCUCACUAUGUAAAGAGAATT against Itpk1 0.807
GGCUUUAAUCCUAACCCUATT against Zfp3 -0.658
CCUUGAGAUUUUUAUAAGCTT against Stx5a -0.0288
CCAGUCACUGACAAUAAGATT against Kcnj1 0.202
CGACUAUAUGCAGAAGUACTT against Cdc27 1.07
CGGAGGAAGGCAAGAUGUATT against Tead4 0.348
GGAGACCAAAAAGAAAUAATT against Cmas 0.622
GGUAGAGCUGCACUUUGGATT against Hddc3 -1.43
CGAGCUUUCACUGCUACAGTT against Ppargc1b -1.35
GCAAGAAGUAUUUUCAGUATT against Galnt4 1.34
GUGCUACUGCCUGCCAUUCTT against Lce1b 0.397
GGAAACAGAGCAAGGAAAATT against Gas7 0.613
GGAAAUUUCAUGAACCCUCTT against Aadat 1.36
GGAAUUAAAUGCCAGUACGTT against Ankfy1 1.84
CCAUCCAAUAAGGUAAACATT against Neil3 1.68
GCUGAACAAUCGCUCAGUATT against N6amt1 -0.481
GCGCAAACAACACAUCGUCTT against Ccpg1 0.503
GCAGGUGAAAUAAAGAAGGTT against Usp45 0.0186
GCCUUGGCAUUAUAUAUGGTT against Prom1 -1.26
GGCUAAAGGAGAACAACAUTT against Bub3 0.748
GCUUCCUCAAUUACUAUGCTT against Apbb2 0.874
GCAUUGGCAUGAUGGACCATT against Slc39a1 0.851
GACAAAACAAUUACCUACATT against Olfr806 -0.579
GCGAAAUUCGAGUUCGGUUTT against Col17a1 0.0214
GGAUUUCACUUGAGAAUGATT against Grem1 -0.905
GGACAUUCCCAAAGAAAAUTT against Usp29 -0.575
GGAAGUUUGUUUGCUGUUATT against Slx4ip 1.08
GCAGAGUGACUUUGAAGCGTT against Klf10 0.844
GGUCGCUAUUAAGAUCAUUTT against Mark4 0.491
GGUAGAAUGAUGUUCAAACTT against Polr2d -1.41
GGAGAUUGCACACUUCCAGTT against Nup214 0.873
GGAACAAUCACACAAGCUGTT against Gsx2 0.0722
CUGGUUUUUAGUCUUUCAUTT against 4930471G03Rik 0.357
GGAUUGUGGUUGAACACAUTT against Tmem33 0.701

Reprinted at random: 7 entries already listed
z-score, inactive:
GGAUGUCAAUGAGUUUGCATT against Clstn2 -0.16
GGACAUCAUUCAUGACCCUTT against Rpl8 -0.0737
GGAGUUGGUACCUUUCCGATT against Thap4 -0.975
GCCACCGUAUAUUUUUAAUTT against Castor2 -0.466
GCCAUUGACUGUACAGGUUTT against Taar4 0.74
GGUCAGGUUGAGGACAUAATT against Vwa1 1.28
GGAGUUGGCCAUGUGGAAATT against Wdr45b 0.945
